# Out of some 360,000 compounds screened, about 7,500 (2.1%) were called active. Inconclusive results, whose numbers are uncertain, are shown with a selection of clear calls. Calls follow the shape of the dose curve; as a rule, active = well fitted inhibition curve with a large enough effect; inconclusive = small, poorly fitted or top-dose-only effect, or effect the other way; inactive = flat fitted curve, though single readings scatter. Potencies of inconclusive entries are doubtful fits and often do not repeat.
# Assay: Nrf2 qHTS screen for inhibitors; also: nearly all actives have a fitted effect of over 60% in size
# Settings: A549 ARE-Fluc reporter, luciferase luminescence, 18-24 h; series mostly up to 46 µM
# Procedure, shortened: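 A549 ARE_Fluc cells, 5000/well, 5% FBS OPTI-MEM; compounds in dose-response, 18-24 h at 37 °C/5% CO2; CellTiter-Fluor viability read (Ex 405/Em 525), then BugLite luciferase luminescence = Nrf2 activity.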
# Potency is read from the fitted curve at half-maximal effect.
row,SMILES,Potency
1,CCOC(=O)CNc1nc(C#N)nc(N2CCOCC2)n1,"inconclusive: 16.4 µM [falling, single point]"
2,CSc1nc2ccc(NC(=O)C3CCCO3)cc2s1 (stereo not drawn),"inconclusive: 1.46 µM [activator, partial curve, poor fit]"
3,COc1ccc(-c2c(C)nn3c(N)c(C#N)cnc23)cc1OC,"inconclusive: 29.1 µM [activator, single point]"
4,Cc1ccc(NC(=O)c2nc(S(=O)(=O)Cc3ccccc3C)ncc2Cl)cc1C,inactive
5,CN(C)CCCN(C(=O)COc1ccc(Cl)cc1)c1nc2ccc(F)cc2s1,"inconclusive: 29.1 µM [activator, single point]"
6,COc1ccc2occ(C(=O)c3ccccc3)c2c1,"inconclusive: 29.1 µM [activator, single point]"
7,[O-]/[N+](=N\Nc1ccc(Cl)cc1)c1ccccc1,"inconclusive: 18.4 µM [activator, single point]"
8,COCCNC(=O)C(c1ccccc1)N(Cc1cccs1)C(=O)Cn1nnc2ccccc21 (stereo not drawn),inactive
9,Cc1cc2cc(C(c3nnnn3CC3CCCO3)N3CCCc4ccccc43)c(=O)[nH]c2cc1C (stereo not drawn),"inconclusive: 1.84 µM [falling, partial curve, poor fit]"
10,CCOC(=O)C1(CC2CC2)CCN(C(=O)c2cc(C3CC3)nc3ccccc23)CC1,"inconclusive: 23.1 µM [activator, single point]"
11,O=C(CN1C(=O)NC2(CCCCCCC2)C1=O)Nc1ccc(Br)cc1Br,"inconclusive: 32.6 µM [falling, partial curve, poor fit]"
12,O=C(O)CCN1CC2([N+](=O)[O-])C=CC(=O)C([N+](=O)[O-])(C1)C2CC(=O)c1ccccc1 (stereo not drawn),inactive
13,COc1ccc(OC)c(C2=NOC(C(=O)NCc3ccco3)C2)c1 (stereo not drawn),"inconclusive: 0.326 µM [falling, partial curve, poor fit]"
14,Cc1nc(C(=O)NNC(=O)c2ccc(Cl)cc2)cs1,"inconclusive: 18.4 µM [falling, single point]"
15,NC(=O)CC(NC(=O)c1ccccc1)c1ccc(NCc2ccc(F)c(F)c2)c([N+](=O)[O-])c1 (stereo not drawn),"inconclusive: 29.1 µM [falling, single point]"
16,CNS(=O)(=O)c1cn(CC(=O)Nc2ccc(C(C)=O)cc2)cc1S(=O)(=O)NC,"inconclusive: 29.1 µM [activator, single point]"
17,CCCCNS(=O)(=O)c1ccc(C)c(-c2nnc3c4ccccc4c(C)nn23)c1,"inconclusive: 9.2 µM [falling, partial curve]"
18,Cc1ccc(-c2nc(C#N)c(NCC3CCCO3)o2)cc1 (stereo not drawn),"inconclusive: 2.91 µM [activator, full curve]"
19,Cc1cc(C)cc(OCC(=O)N2N=C(c3cccnc3)CC2(O)C(F)(F)F)c1 (stereo not drawn),active: 23.1 µM
20,O=C(COc1ccccc1[N+](=O)[O-])N/N=C/C=C/c1ccco1,inactive
21,COc1ccccc1NC(=S)Nc1cccc2cnccc12,"inconclusive: 29.1 µM [falling, single point]"
22,CC1CCN(C(=O)c2cc3c(=O)n4ccccc4nc3s2)CC1,"inconclusive: 7.31 µM [activator, partial curve]"

row,SMILES,Potency
1,O=c1nc(Nc2ccc(OCc3ccccc3)cc2)sc2ncccc12,"inconclusive: 0.731 µM [activator, full curve]"
2,Nc1ccc2nn(-c3ccc(F)cc3)nc2c1,"inconclusive: 10.3 µM [activator, partial curve, poor fit]"
3,O=C1c2ccccc2CC1Sc1nnc(-c2ccccn2)o1 (stereo not drawn),"inconclusive: 14.6 µM [activator, partial curve]"
4,COc1ccc(-n2nc(C(=O)NCC(=O)N3CCC(C)CC3)c3ccccc3c2=O)cc1Cl,"inconclusive: 20.6 µM [activator, partial curve]"
5,CCOC(=O)c1ccc(NC(=O)CCS(=O)(=O)c2ccc(Br)s2)cc1,inactive
6,COc1ccc(CNC(=O)c2ccc3c(=O)n4c(nc3c2)CCCCC4)cc1OC,active: 6.51 µM
7,Cc1cccc(Cc2cnc(N3C(=N)SC(C)C3=O)s2)c1 (stereo not drawn),"inconclusive: 29.1 µM [falling, single point]"
8,COc1cc(/C=N/Nc2ccc(C(=O)O)cc2)cc(OC)c1OC,"inconclusive: 25.9 µM [activator, partial curve]"
9,Cc1sc(NC(=O)Cc2ccc3c(c2)OCO3)nc1-c1ccc2c(c1)CCN2C(=O)c1cccc(F)c1,active: 7.31 µM
10,CC(OC(=O)c1cccs1)C(=O)NCCc1ccccc1 (stereo not drawn),inactive
11,Cc1cc(C)c(Cn2c(C3CC(=O)N(c4ccc(F)cc4)C3)nc3ccccc32)c(C)c1 (stereo not drawn),"inconclusive: 25.9 µM [falling, partial curve, poor fit]"
12,Cc1nc(Nc2ccccc2F)c2oc3ccccc3c2n1,"inconclusive: 13 µM [activator, partial curve, poor fit]"
13,CC(C)OC(=O)c1c(-c2ccccc2)c(-c2ccccc2)nn(C)c1=O,active: 9.2 µM
14,Cc1ccc(/C(=N/Nc2nc3ccccc3s2)C2=C(O)c3ccccc3C2=O)cc1,inactive
15,Cc1onc(-c2ccccc2Cl)c1C(=O)N(Cc1ccc(N(C)C)cc1)C(C)C,"inconclusive: 5.8 µM [falling, partial curve, poor fit]"
16,CC1CCC2(CC1)NC(=O)N(CC(=O)Nc1ccc3c(c1)CCC3)C2=O (stereo not drawn),"inconclusive: 16.4 µM [falling, partial curve]"
17,O=C(Nn1c(C2CCCCC2)nc2ccccc2c1=O)c1ccc([N+](=O)[O-])cc1,active: 23.1 µM
18,O=C(CCCN1C(=O)S/C(=C\c2ccccc2)C1=O)NNC(=O)c1ccccc1O,active: 13 µM
19,CCOC(=O)C1CCN(C(=O)/C=C/c2cccs2)CC1,"inconclusive: 5.17 µM [activator, partial curve, poor fit]"
20,CCN(CC)C(=O)c1ccc(S(=O)(=O)c2ccccc2)cc1,"inconclusive: 0.0116 µM [activator, full curve, poor fit]"
21,O=S(=O)(Nc1ccc(Cc2ccncc2)cc1)c1ccc(Cl)cc1,active: 9.2 µM

# Two records drawn at random from those above:
row,SMILES,Potency
8,COc1cc(/C=N/Nc2ccc(C(=O)O)cc2)cc(OC)c1OC,"inconclusive: 25.9 µM [activator, partial curve]"
20,CCN(CC)C(=O)c1ccc(S(=O)(=O)c2ccccc2)cc1,"inconclusive: 0.0116 µM [activator, full curve, poor fit]"

# Source: PubChem BioAssay AID504444 (National Center for Advancing Translational Sciences (NCATS), 2011)
